# Experimental data reported in the supplement of paper PMC8728848.
# Some of the results follow.
# What was measured:
# Assay in all cases: glycan array binding signal (z-score within array); higher = stronger binding
# Settings in all cases: glycan notation: IUPAC condensed, linker removed
# [1] = target: Fuc(a1-2)Gal(b1-4)GlcNAc(b1-3)Gal(b1-4)GlcNAc(b1-3)Gal(b1-4)GlcNAc
# Outline: (§1)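 The Consortium for Functional Glycomics database supplied 3228 glycan arrays, of which those lacking an available protein sequence were dropped. The binding signal, a within-array Z-score, was averaged across arrays of the same protein sequence and across linkers. Negative scores can be read as non-binding.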
# [2] = target: Fuc(a1-2)Gal(b1-4)GlcNAc(b1-3)GalNAc
# Outline: as §1
# [3] = target: Fuc(a1-2)Gal(b1-4)GlcNAc(b1-3)[Fuc(a1-2)Gal(b1-4)GlcNAc(b1-6)]GalNAc
# Outline: as §1
# [4] = target: Fuc(a1-2)Gal(b1-4)GlcNAc(b1-3)[Fuc(a1-3)[Gal(b1-4)]GlcNAc(b1-6)]Gal(b1-4)Glc
# Outline: as §1
# [5] = target: Fuc(a1-2)Gal(b1-4)GlcNAc(b1-6)GalNAc
# Outline: as §1
# [6] = target: Fuc(a1-2)Gal(b1-4)GlcNAc6S
# Outline: as §1
# [7] = target: Fuc(a1-2)Gal(b1-4)[Fuc(a1-3)]GlcNAc
# Outline: as §1
# [8] = target: Fuc(a1-2)Gal(b1-4)[Fuc(a1-3)]GlcNAc(b1-2)Man(a1-3)[Fuc(a1-2)Gal(b1-4)[Fuc(a1-3)]GlcNAc(b1-2)Man(a1-6)]Man(b1-4)GlcNAc(b1-4)[Fuc(a1-6)]GlcNAc
# Outline: as §1
# [9] = target: Fuc(a1-2)Gal(b1-4)[Fuc(a1-3)]GlcNAc(b1-2)[Fuc(a1-2)Gal(b1-4)[Fuc(a1-3)]GlcNAc(b1-4)]Man(a1-3)[Fuc(a1-2)Gal(b1-4)[Fuc(a1-3)]GlcNAc(b1-2)Man(a1-6)]Man(b1-4)GlcNAc(b1-4)GlcNAc
# Outline: as §1
# [10] = target: Fuc(a1-2)Gal(b1-4)[Fuc(a1-3)]GlcNAc(b1-3)Gal(b1-4)[Fuc(a1-3)]GlcNAc
# Outline: as §1
# [11] = target: Fuc(a1-2)Gal(b1-4)[Fuc(a1-3)]GlcNAc(b1-3)Gal(b1-4)[Fuc(a1-3)]GlcNAc(b1-3)Gal(b1-4)[Fuc(a1-3)]GlcNAc
# Outline: as §1
# [12] = target: Fuc(a1-2)Gal(b1-4)[Fuc(a1-3)]GlcNAc(b1-3)GalNAc
# Outline: as §1
# [13] = target: Fuc(a1-2)Gal(b1-4)[Fuc(a1-3)]GlcNAc(b1-3)[Neu5Ac(a2-6)Gal(b1-4)GlcNAc(b1-6)]Gal(b1-4)Glc
# Outline: as §1
# [14] = target: Fuc(a1-2)Gal3S(b1-4)GlcNAc
# Outline: as §1
# [15] = target: Fuc(a1-2)Gal6S(b1-3)GlcNAc
# Outline: as §1
# [16] = target: Fuc(a1-2)Gal6S(b1-3)GlcNAc6S
# Outline: as §1
# Fuc(a1-2)Gal6S(b1-4)Glc = target: Fuc(a1-2)Gal6S(b1-4)Glc
# Outline: as §1
# [17] = target: Fuc(a1-2)Gal6S(b1-4)Glc6S
# Outline: as §1
# Fuc(a1-2)[Gal(a1-3)]Gal = target: Fuc(a1-2)[Gal(a1-3)]Gal
# Outline: as §1
# [18] = target: Fuc(a1-2)[Gal(a1-3)]Gal(b1-3)GalNAc
# Outline: as §1
# [19] = target: Fuc(a1-2)[Gal(a1-3)]Gal(b1-3)GalNAc(b1-3)Gal(a1-4)Gal(b1-4)Glc
# Outline: as §1
# [20] = target: Fuc(a1-2)[Gal(a1-3)]Gal(b1-3)GlcNAc
# Outline: as §1
# [21] = target: Fuc(a1-2)[Gal(a1-3)]Gal(b1-3)GlcNAc(b1-2)Man(a1-3)[Fuc(a1-2)[Gal(a1-3)]Gal(b1-3)GlcNAc(b1-2)Man(a1-6)]Man(b1-4)GlcNAc(b1-4)GlcNAc
# Outline: as §1
# [22] = target: Fuc(a1-2)[Gal(a1-3)]Gal(b1-3)GlcNAc(b1-2)Man(a1-3)[Fuc(a1-2)[Gal(a1-3)]Gal(b1-3)GlcNAc(b1-2)Man(a1-6)]Man(b1-4)GlcNAc(b1-4)[Fuc(a1-6)]GlcNAc
# Outline: as §1
# [23] = target: Fuc(a1-2)[Gal(a1-3)]Gal(b1-3)GlcNAc(b1-3)GalNAc
# Outline: as §1
# [24] = target: Fuc(a1-2)[Gal(a1-3)]Gal(b1-3)GlcNAc(b1-6)GalNAc
# Outline: as §1
# [25] = target: Fuc(a1-2)[Gal(a1-3)]Gal(b1-4)Glc
# Outline: as §1
# [26] = target: Fuc(a1-2)[Gal(a1-3)]Gal(b1-4)GlcNAc
# Outline: as §1
# [27] = target: Fuc(a1-2)[Gal(a1-3)]Gal(b1-4)GlcNAc(b1-2)Man
# Outline: as §1
# [28] = target: Fuc(a1-2)[Gal(a1-3)]Gal(b1-4)GlcNAc(b1-2)Man(a1-3)[Fuc(a1-2)[Gal(a1-3)]Gal(b1-4)GlcNAc(b1-2)Man(a1-6)]Man(b1-4)GlcNAc(b1-4)GlcNAc
# Outline: as §1
binder,measurement,setting,value
PX14343I-pdi-501-30-501 (Parabacteroides distasonis) (protein) SDQYSTETFWKTKEHASAGIMGCYNALKLWRSLHTMEFDMLTANAMPYNEANGTQAIGKGEHLSTTALIGSLWKNCYVGIGRTNTFIANVGGVDMDESEKAKMVGEAKFLRAFYYLSLVDKFGGVPLIIDAPNADEQAELPRNSKEEVVNQIVKDLEEAAAVLPDTYASSDLGRATKGAALALKARTLLYNSRWAEAAQAAKQVMESGVYQLFNDYRHFFSEDNKYNCEVIFDIEAKLPEYPTDYDQNIWRLNRPAPLKELVDTYLCVDGKTIEESPLYDPTRPYENRDPRLLKSIVCIGYPYLGKTITKEDVATTGFGVKKYTSYEDDVTIPLVERSAFNFILIRYAEVLLTYAEAQNEASGPDQSVYDAINQLRRRPDINMPEVPKGLTKDQMREVIRRERRIELTFEGLYYSDILRWKTAEKENNGMMHNYEGIEVVKRSFNPKRDYLWPIPYNQTVLNPNLEQNPNWD,glycan array binding signal (z-score),[1],-0.429
same,glycan array binding signal (z-score),[2],0.082
same,glycan array binding signal (z-score),[3],0.509
same,glycan array binding signal (z-score),[4],-0.159
same,glycan array binding signal (z-score),[5],-1.54
same,glycan array binding signal (z-score),[6],-0.223
same,glycan array binding signal (z-score),[7],-0.321
same,glycan array binding signal (z-score),[8],2.6
same,glycan array binding signal (z-score),[9],-0.532
same,glycan array binding signal (z-score),[10],-0.634
same,glycan array binding signal (z-score),[11],-0.573
same,glycan array binding signal (z-score),[12],-0.465
same,glycan array binding signal (z-score),[13],-0.696
same,glycan array binding signal (z-score),[14],-0.677
same,glycan array binding signal (z-score),[15],0.393
same,glycan array binding signal (z-score),[16],-0.446
same,glycan array binding signal (z-score),Fuc(a1-2)Gal6S(b1-4)Glc,0.082
same,glycan array binding signal (z-score),[17],-0.391
same,glycan array binding signal (z-score),Fuc(a1-2)[Gal(a1-3)]Gal,-0.376
same,glycan array binding signal (z-score),[18],0.267
same,glycan array binding signal (z-score),[19],0.578
same,glycan array binding signal (z-score),[20],-0.077
same,glycan array binding signal (z-score),[21],0.697
same,glycan array binding signal (z-score),[22],-0.563
same,glycan array binding signal (z-score),[23],0.385
same,glycan array binding signal (z-score),[24],-0.008
same,glycan array binding signal (z-score),[25],-0.16
same,glycan array binding signal (z-score),[26],0.188
same,glycan array binding signal (z-score),[27],-0.7
same,glycan array binding signal (z-score),[28],0.272

# Reformatted: results already given
binder | measurement | setting | value
PX14343I-pdi-501-30-501 (Parabacteroides distasonis) (protein) SDQYSTETFWKTKEHASAGIMGCYNALKLWRSLHTMEFDMLTANAMPYNEANGTQAIGKGEHLSTTALIGSLWKNCYVGIGRTNTFIANVGGVDMDESEKAKMVGEAKFLRAFYYLSLVDKFGGVPLIIDAPNADEQAELPRNSKEEVVNQIVKDLEEAAAVLPDTYASSDLGRATKGAALALKARTLLYNSRWAEAAQAAKQVMESGVYQLFNDYRHFFSEDNKYNCEVIFDIEAKLPEYPTDYDQNIWRLNRPAPLKELVDTYLCVDGKTIEESPLYDPTRPYENRDPRLLKSIVCIGYPYLGKTITKEDVATTGFGVKKYTSYEDDVTIPLVERSAFNFILIRYAEVLLTYAEAQNEASGPDQSVYDAINQLRRRPDINMPEVPKGLTKDQMREVIRRERRIELTFEGLYYSDILRWKTAEKENNGMMHNYEGIEVVKRSFNPKRDYLWPIPYNQTVLNPNLEQNPNWD | glycan array binding signal (z-score) | [5] | -1.54
same | glycan array binding signal (z-score) | [11] | -0.573
